This data set can be described thus: Bulk density (poured and tapped) of drug powders and processing aid. The note with it: powder used in the examples. The format is physicochemical.

The structures appear in SMILES notation. Where a name gives a salt, the structure may show the parent alone.

As for `CN1CC[C@]23c4c5ccc(O)c4O[C@H]2[C@@H](O)C=C[C@H]3[C@H]1C5` [morphine sulfate, 7,8 didehydro-,5 α-epoxy-17-methylmorphinan-3,6 α-diol sulfate (2:1) salt pentahydrate], the bulk density entry was “about 0.44 g/ml”.

The record behind these values is patent publication US7060293B1, “Powder-layered oral dosage forms” (Purdue Pharma, priority 1994, dated 2006).
